Data taken from US20230357870A1 (priority 2020, published 2023).
For at least one compound, name, drawing or mass did not settle the structure.

Tested on: pSmart BAC T7-mcv-replicon
Assay type: cell-based, MERS

## CCC(CC)COC(=O)[C@H](C)N[P@](=O)(OC[C@H]1O[C@@](C#N)(c2ccc3c(N)ncnn23)[C@H](O)[C@@H]1O)Oc1ccccc1 [Remdesivir, remdesivir]
  concentration to achieve 50% inhibition, MERS replicon compared with SARS-CoV-2 or SARS-CoV-1 replicon: greater concentration
